PubChem BioAssay AID1259254 – NCATS – 2017

Purpose: 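Genome-wide screen for genes that prevent DNA re-replication in cancer cells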 (primary screen)
Cell system: human HCT116 colorectal cancer cells
Reagents: single siRNA against human genes
Duration: 3 days
Detection: 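Imaged Hoechst DNA stain sorts each cell into a cycle phase by DNA amount; per plate, G2 fraction set to 0% for non-targeting and 100% for GMNN siRNA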
Reading the numbers: G2 robust z-score and G2 cells, % of GMNN control: higher = more G2 cells, more excess DNA replication
Active means: 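An siRNA counts as active if its G2 robust z-score lies at least 5 MADs above the screen median; here such calls match roughly 38% of GMNN control or more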
In all, the deposit lists about 59,000 reagents; shown is a random part of them. Of all reagents, about 1,550 (2.6%) got an active call. 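G2 share is only a proxy for re-replication; each gene was hit by three separate siRNAs, and active genes were retested.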 Unmarked entries are inactive. Reagents against one gene are numbered here. Further read-outs or replicates are left out here. Not given: the amount of reagent.

GPX6 (glutathione peroxidase 6) #1 → G2 robust z-score = 3.82; G2 cells, % of GMNN control = 29.8
GPX6 (glutathione peroxidase 6) #2 → G2 robust z-score = 0.962; G2 cells, % of GMNN control = 9.74
GPX6 (glutathione peroxidase 6) #3 → G2 robust z-score = 0.832; G2 cells, % of GMNN control = 8.82
NRAS (NRAS proto-oncogene, GTPase) #1 → G2 robust z-score = -1.27; G2 cells, % of GMNN control = -5.99
NRAS (NRAS proto-oncogene, GTPase) #2 → G2 robust z-score = -0.519; G2 cells, % of GMNN control = -0.684
NRAS (NRAS proto-oncogene, GTPase) #3 → G2 robust z-score = -0.359; G2 cells, % of GMNN control = 0.438
NTSR1 (neurotensin receptor 1) #1 → G2 robust z-score = -1.53; G2 cells, % of GMNN control = -7.83
NTSR1 (neurotensin receptor 1) #2 → G2 robust z-score = -0.449; G2 cells, % of GMNN control = -0.19
NTSR1 (neurotensin receptor 1) #3 → G2 robust z-score = -1.11; G2 cells, % of GMNN control = -4.87
RABGEF1 (RAB guanine nucleotide exchange factor 1) #1 → G2 robust z-score = 0.506; G2 cells, % of GMNN control = 6.52
RABGEF1 (RAB guanine nucleotide exchange factor 1) #2 → G2 robust z-score = 0.265; G2 cells, % of GMNN control = 4.83
RABGEF1 (RAB guanine nucleotide exchange factor 1) #3 → G2 robust z-score = 1.22; G2 cells, % of GMNN control = 11.5
ACRBP (acrosin binding protein) #1 → G2 robust z-score = 0.0741; G2 cells, % of GMNN control = 3.49
ACRBP (acrosin binding protein) #2 → G2 robust z-score = -1.32; G2 cells, % of GMNN control = -6.32
ACRBP (acrosin binding protein) #3 → G2 robust z-score = 1.94; G2 cells, % of GMNN control = 16.6
UCK2 (uridine-cytidine kinase 2) #1 → G2 robust z-score = -0.873; G2 cells, % of GMNN control = -3.17
UCK2 (uridine-cytidine kinase 2) #2 → G2 robust z-score = 2.16; G2 cells, % of GMNN control = 18.1
UCK2 (uridine-cytidine kinase 2) #3 → G2 robust z-score = -0.606; G2 cells, % of GMNN control = -1.29
